# Primary screen of a compound library

Amino acid sequences for entries named in this document (tags omitted).
UniProt P9WFT3, whole entry: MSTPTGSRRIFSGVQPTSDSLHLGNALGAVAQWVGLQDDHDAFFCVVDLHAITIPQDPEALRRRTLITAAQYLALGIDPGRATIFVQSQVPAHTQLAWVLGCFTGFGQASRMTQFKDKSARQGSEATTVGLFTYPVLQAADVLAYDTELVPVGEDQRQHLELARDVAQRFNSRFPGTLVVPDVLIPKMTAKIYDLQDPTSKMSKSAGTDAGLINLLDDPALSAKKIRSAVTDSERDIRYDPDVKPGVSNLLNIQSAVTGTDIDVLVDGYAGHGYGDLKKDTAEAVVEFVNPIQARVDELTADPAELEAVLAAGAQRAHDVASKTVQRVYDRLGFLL

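Tryptophan-tRNA ligase, Mycobacterium tuberculosis (UniProt P9WFT3). Enzyme assay of tryptophanyl-tRNA synthetase; the read-out is not stated. Concentration: 10 µM. Higher most likely means stronger inhibition; the record gives no direction and few retests gave an IC50. Of about 65,000 compounds tested this way, about 64 (0.098%) reached 50% or more in at least one test.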

Values are the deposited “Percent Effect”, in %. The record does not define 0% and 100%; most values in the screen are far below 50% and negative numbers occur (in some assays of this library far below -100). This is an unselected part of the compounds tested.

Compound	percent effect
COc1ccc(Oc2ncccc2NC(=O)N2CCOCC2)cc1	0.4836
O=C(N1CCCC1)N1CCO[C@H]2[C@@H](OCc3cccnc3)CC[C@@H]21	0.9764
Cc1csc(C2CCCCN2C(=O)c2cc(Cl)c[nH]2)n1 (configuration not stated)	-2.825
Cc1cc(N[C@H]2CN(CC(C)(C)N3CCOCC3)C[C@@H]2C2CC2)ncn1	7.68
CNC(=O)C1(C)CN(c2nnc(C)c3ccccc23)CCO1 (configuration not stated)	-4.158
CS(=O)(=O)c1cnc(N2CCCC2)nc1C1CCN(C(=O)C2CC2)CC1	-9.177
Cc1cc(C2CCC2)nc(N2CCC3(CCCNC3=O)C2)n1 (configuration not stated)	4.454
Cc1cc(-c2ccc(=O)n(C3CCN(C(=O)C4CCC4)CC3)n2)c(C)o1	-4.144
O=C(Cc1ccccc1Br)NCC(=O)Nc1cn[nH]c1	-3.685
Cn1ccnc1CN1CCC2(CC1)CN(c1cncnc1)C(=O)CO2	-3.867
CCOc1ccc(CCCC(=O)N2CC[C@H](NC(C)=O)C2)cc1C	5.305
O=C(Cc1cnn(-c2ccccc2)n1)NC1CCOCC1	4.769
NC1CCCCN(Cc2cc(-c3ccccc3OC(F)(F)F)no2)C1 (configuration not stated)	0.136
CCCc1cncnc1N1CCC2(CCC(=O)N(C3CCCC3)C2)CC1	-0.9762
CC(C)(C)c1cc(=O)[nH]c(-c2ccccc2CN2CCCCCC2)n1	-2.773
Cc1cc(NCc2nnc3n2CCCCC3)n2nc(C)c(C)c2n1	7.991
Cc1c(C(=O)N(CCN(C)C)Cc2ccccn2)oc2ccccc12	2.051
CC(C(N)=O)N1CCN(c2ncc(Br)cn2)CC1 (configuration not stated)	1.943
CC(Sc1nc(N)cc(N)n1)c1nc(C(C)(C)C)no1 (configuration not stated)	1.358
CS(=O)(=O)CCC(=O)Nc1nccn1Cc1ccccc1Cl	-2.039
Cc1ccc(N2CCO[C@H]3CN(Cc4ccncc4)C[C@H]32)nn1	-2.703
CCCn1nc2c(cc1=O)CN(Cc1ccccn1)CC2	1.615
O=C(Cc1ccc(F)cc1)NCC(O)(c1cccs1)C1CC1 (configuration not stated)	5.243
Cc1cccc(C(C)(C)NC(=O)CS(=O)(=O)CC(C)C)c1	2.222
COc1ccc(CN2Cc3cn(C)nc3C(COCC3CC3)C2)cc1 (configuration not stated)	31.69
COCc1nc(C(=O)N2CCCCC2Cn2cc(C)cn2)cs1 (configuration not stated)	-5.238
CCOc1ccc(C(=O)N(C)C)cc1NC(=O)c1ccsc1	-3.837
COc1ccccc1C(C)(C)NCc1ccc(C)o1	-4.115
CC(C)(C)C(=O)NS(=O)(=O)c1ccc(F)cc1C(F)(F)F	-1.905
Cc1cc(C(=O)Nc2ccc(OCCN3CCN(C)CC3)cc2)[nH]n1	-0.9202
CN(CCNC(=O)Nc1cnn(C)c1)Cc1ccc(F)cc1	-0.7651
Cc1ccc(C(=O)NCCCNc2ccc(C(F)(F)F)cn2)cc1	-7.904
CCN(C(C)=O)c1nc(CN2CCCC2Cn2cncn2)cs1 (configuration not stated)	8.179
O=C(CCn1ccnc1)N1CC[C@H](Oc2cccc(F)c2)[C@@H](O)CC1	31.79
COC(=O)C1=C(C)N=C2SCC(=O)N2C1c1cn(C)nc1C (configuration not stated)	-5.059
COCCCC(=O)N1CC(=O)Nc2cc(Br)ccc21	-3.534
CNc1ncc(CN(C)Cc2cc(O)c3cc(C)cc(C)c3n2)cn1	-2.727
CC1CN(Cc2ccc(C#N)cc2F)CCN1Cc1nccn1C (configuration not stated)	-3.29
CC(C)(C)NC(=O)CNC(=O)c1cccnc1Oc1cccnc1	-5.09
O=C(NCC1CC[C@@H]2[C@@H]1OCCN2Cc1cccs1)c1ccco1 (some centres not stated)	0.6347
CC(C)NC(=O)C[C@H]1[C@H]2CN(C(=O)Cc3ccccn3)C[C@@H]12	-0.1803
CC(C1CC1)N(C(=O)NCCCn1nc2ccccn2c1=O)C1CC1 (configuration not stated)	3.635
Cc1cc(C(O)CCNC(=O)c2ccc(Cl)s2)c(C)o1 (configuration not stated)	2.673
c1cc(CN2CCC3(CCOCC3COCC3CC3)CC2)ccn1 (configuration not stated)	-5.578
Cc1noc2ncc(S(=O)(=O)Nc3cc(CC(C)(C)C)[nH]n3)cc12	-2.216
COc1ccc(CN2C[C@@H]3COC[C@@H](N4CCN(C)CC4)[C@@H]3C2)cc1	-4.473
CC(C(=O)N1CCCCC1)n1nc(-c2cccs2)cc(N)c1=O (configuration not stated)	9.232
CCN(CCNC(=O)Nc1nnc(C)s1)C(=O)OC(C)(C)C	-2.556
c1cnc(N2CCC3(CCCN(CC4CCCCC4)C3)C2)cn1 (configuration not stated)	-0.729
COc1ccc(OC2CCN(C(=O)CCc3n[nH]c(N)n3)CC2)cc1	0.4188
CC(C)C(C)NC(=O)Nc1cccc2c1CCN(S(C)(=O)=O)C2 (configuration not stated)	4.272
CCc1ncc2c(n1)CN(c1nc(C)ccc1C(=O)O)C2	1.386
O=C1COC2(CCN(Cc3nccs3)CC2)CN1c1ccccc1	1.826
COc1c(CNCc2ccc(N(C)C)nc2)c(C(C)C)nn1C	0.4717
N#CC1(C(=O)N2CCOC(c3ccc(F)cc3)C2)CCCC1 (configuration not stated)	1.861
OCCOCc1n[nH]c2c1CN(Cc1cccs1)C2	2.185
Cc1nc(CN2CCCN(CCOc3cccc(C#N)c3)CC2)no1	-5.75
O=c1[nH]c(CCN2CCCCC2Cn2cccn2)nc2ccccc12 (configuration not stated)	-7.657
Cn1cccc(NC(=O)NCc2cccc(CO)c2)c1=O	5.298
COc1cccc2c1OCC(C(=O)N1Cc3ccccc3C1)C2 (configuration not stated)	3.406
Cc1nc(CN2CCOCC3(CCN(c4ccccn4)C3)C2)cs1 (configuration not stated)	-1.285
CCNC(c1cccnc1)c1ccc(F)cc1F (configuration not stated)	2.414
COC[C@@]12CCO[C@@H]1CCN(C(=O)Cc1ccccc1F)C2	-1.562
CCc1nc(CC(=O)NC(C#N)CC)cs1 (configuration not stated)	0.3666
COc1c(C2CCCN2C(=O)c2cnc[nH]2)c(C)nn1C (configuration not stated)	0.09737
N#Cc1cccc(NC2CC(=O)N(CCc3ccc(F)cc3)C2)n1 (configuration not stated)	2.475
Cc1ccc(CNCC2CNc3cc(C)nn3C2)cn1 (configuration not stated)	26.93
COc1ccc(NCC(=O)NCC(=O)N2CCCC2)c(C(F)(F)F)c1	-0.1555
Cc1nn(C)c(N2CCOCC2)c1CNC1CCN(C(C)(C)C)CC1	-2.596
Cc1nn2cccnc2c1C(=O)N1CCCC(Nc2ccccc2)C1 (configuration not stated)	2.28
CC(C)=CCN1CCN(C(=O)CSc2ccccn2)[C@H]2CS(=O)(=O)C[C@H]21	3.51
Cc1cnn(C2CCCN(C(=O)c3ccc(N4CCCC4)nc3)C2)c1 (configuration not stated)	-1.85
COc1ccc(CCN(C)CCS(=O)(=O)c2ccc(Cl)cc2)cc1OC	-2.279
CCCN1CCN(C(=O)c2cnccc2C)[C@H]2CS(=O)(=O)C[C@H]21	0.9721
CCN1CC2(CC1=O)CN(Cc1ccco1)CCN(C(=O)C(C)C)C2 (configuration not stated)	2.49
Cc1ccccc1C1(C(=O)NCCN2CCCCC2C)CCOCC1 (configuration not stated)	21.79
CCc1ccc2nc(NCC(O)CO)cc(C)c2c1 (configuration not stated)	6.631
CCc1nccn1CC(=O)N1C[C@H]2CC[C@@H]1CN(S(=O)(=O)N(C)C)C2	-0.8942
CCn1cc2c(n1)C(COC)CN(Cc1ccoc1)C2 (configuration not stated)	-9.197
CC(C(=O)NCc1ccc(N2CCCC2)nc1)n1cncn1 (configuration not stated)	-10.19
Cc1ccc(-c2cc(CNC(=O)N3CCC(O)CC3)on2)cc1	-11.28
CCC1CCCCN1C(=O)Cn1nc(-c2ccc(C)o2)cc(N)c1=O (configuration not stated)	1.187
c1ccc2c(c1)CC(N1CCCC(NCc3cccc4nonc34)C1)C2 (configuration not stated)	5.719
CCOc1ccccc1C(C(=O)O)N(C)CC1CCOCC1 (configuration not stated)	-0.2513
CNC(=O)c1cccc(NCCOc2ccc(CC#N)cc2)c1C	-4.238
O=C1c2cnc(N3CCOCC3)nc2CN1c1ccc2c(c1)OCO2	-1.243
CNC(=O)Cn1nnc(-c2cc3ccccc3o2)n1	-9.022
COCCC(=O)N1CC[C@@H](N(C)C)[C@@H]1Cc1ccccc1	-0.1762
O=C(NC1CC1)C1CNCCN1C(=O)CCOc1ccccc1 (configuration not stated)	1.088
CC1c2ncc(CNC(=O)C3CC3)n2CCN1Cc1ccccn1 (configuration not stated)	3.103
Cc1ccc(-c2nc(C3CCN(C(=O)c4ccn(C)n4)CC3)no2)cn1	-4.525

Source: ChEMBL document CHEMBL3988442, “University of Dundee, Small-Polar-MMV Screening Library” (2021).